Reference: article PMC3542428, “Functional Insights from the Crystal Structure of the N-Terminal Domain of the Prototypical Toll Receptor” (Structure(London, England:1993), 2013)
No constants are given. Whether binding was seen depends on the method and setting. Where a sequence is shown, tags or fusion partners need not be part of it.

Target: TollN13-VLR (Toll N-terminal region up to LRR13 fused to VLR B.61 residues 133-201) (Drosophila melanogaster | hagfish) (UniProt P08953+Q4G1L2)
Assay: SEC; gel filtration of the Toll-VLR constructs alone and mixed with Spz C-106 (TollN6-VLR and C-106 in equimolar concentrations); both purified

binding: no binding
B1: TollN13-VLR (Toll N-terminal region up to LRR13 fused to VLR B.61 residues 133-201) (domain or fragment, UniProt P08953 28-397; Q4G1L2 133-201)
chain: SFGRDACSEMSIDGLCQCAPIMSEYEIICPANAENPTFRLTIQPKDYVQIMCNLTDTTDYQQLPKKLRIGEVDRVQMRRCMLPGHTPIASILDYLGIVSPTTLIFESDNLGMNITRQHLDRLHGLKRFRFTTRRLTHIPANLLTDMRNLSHLELRANIEEMPSHLFDDLENLESIEFGSNKLRQMPRGIFGKMPKLKQLNLWSNQLHNLTKHDFEGATSVLGIDIHDNGIEQLPHDVFAHLTNVTDINLSANLFRSLPQGLFDHNKHLNEVRLMNNRVPLATLPSRLFANQPELQILRLRAELQSLPGDLFEHSTQITNISLGDNLLKTLPATLLEHQVNLLSLDLSNNRLTHLPDSLFAHTTNLTDLRLNQLKSVPDGIFDRLTSLQKIWLHTNPWDCSCPRIDYLSRWLNKNSQKEQGSAKCSGSGKPVRSIICPTT
